Reference: PubChem BioAssay AID248 (DTP/NCI, 2004)
The list shows only some results of the screen, not a fair sample: it is rich in T/C values a quarter to a half above the control, in often repeated tests (any T/C) and in doses without a T/C. Other doses and runs of a compound stand elsewhere. T/C: endpoint of the treated group in % of that of the vehicle group. Some doses have a count of surviving animals in place of a T/C: the source holds a T/C of zero for them, seemingly a mark for toxic or unscored doses. Some survivor counts are full or nearly so, which does not show that the dose was tolerated: survival well below the control is almost never listed, so the zero probably covers shortened survival too. Survivors were counted at the toxicity check, usually on the fifth day, unless a day is given; later deaths do not show. Schedules are NCI's codes, read here as Q, the interval in days (D) or hours (H), X, the number of doses. Some schedule codes hold Z or #, which are not explained here. For survival time, this PubChem deposit counts one and a half times the control or more as active, and values a quarter to a half above the control carry no call in these data; other NCI protocols may use other cut-offs. Counts like (3×) stand for listed records that agree. Some entries hold several experiments; the results are listed from low to high. Some T/C values are followed by the survivors on the day toxicity was checked, most often the fifth; where none is given, no animal had died by that day.

Tested on: L1210 leukemia ip in BDF1 mice, survival T/C
Experiment: NCI In Vivo Anticancer Drug Screen. Data for tumor model L1210 Leukemia (intraperitoneal) in B6D2F1 (BDF1) mice
Conditions: higher T/C = longer survival

`O=c1[nH]c(=O)n(C2CC(O)C(CO)O2)cc1F` (stereo not given) was tested, and the T/C (T/C endpoint: mean survival time, dose: 120.0 mg/kg/injection, schedule: Q01DX009 (ip), vehicle: saline, evaluated on day 60) was 149 % of control, the T/C (T/C endpoint: mean survival time, dose: 120.0 mg/kg/injection, schedule: Q## X009 (ip), vehicle: saline) was 149 % of control and the T/C (T/C endpoint: mean survival time, dose: 134.0 mg/kg/injection, schedule: Q02DX010 (ip), vehicle: carboxymethylcellulose (CMC)) was 149 % of control. For the same compound, the T/C (T/C endpoint: mean survival time, dose: 141.0 mg/kg/injection, schedule: Q02DX008 (ip), vehicle: saline) was 137 % of control, the T/C (T/C endpoint: mean survival time, dose: 141.0 mg/kg/injection, schedule: Q02DX008 (ip), vehicle: water) was 147 % of control and the T/C (T/C endpoint: mean survival time, dose: 142.0 mg/kg/injection, schedule: Q04DX002 (ip), vehicle: saline) was 101, 113, 118, 119 % of control. The T/C (T/C endpoint: mean survival time, dose: 144.0 mg/kg/injection, schedule: Q01DX009 (ip), vehicle: saline) was 130 and 131 % of control, the T/C (T/C endpoint: mean survival time, dose: 150.0 mg/kg/injection, schedule: Q03DX006 (ip), vehicle: saline) was 142 % of control and the T/C (T/C endpoint: mean survival time, dose: 160.0 mg/kg/injection, schedule: Q01DX009 (ip), vehicle: saline) was 135 % of control. The T/C (T/C endpoint: mean survival time, dose: 160.0 mg/kg/injection, schedule: Q01DX015 (ip), vehicle: saline) was 125 % of control, the T/C (T/C endpoint: mean survival time, dose: 160.0 mg/kg/injection, schedule: Q01DX Z (ip), vehicle: other) was 125 and 132 % of control and the T/C (T/C endpoint: mean survival time, dose: 175.0 mg/kg/injection, schedule: Q07DX003 (ip), vehicle: saline) was 128 % of control. The T/C (T/C endpoint: mean survival time, dose: 176.0 mg/kg/injection, schedule: Q## X032 (ip), vehicle: saline) was 139 % of control, the T/C (T/C endpoint: mean survival time, dose: 180.0 mg/kg/injection, schedule: Q01DX009 (ip), vehicle: saline) was 126 % of control and the T/C (T/C endpoint: mean survival time, dose: 180.0 mg/kg/injection, schedule: Q## X009 (ip), vehicle: saline) was 126 % of control. For the same compound, the T/C (T/C endpoint: mean survival time, dose: 188.0 mg/kg/injection, schedule: Q04DX003 (ip), vehicle: saline) was 145 % of control, the survivor count (T/C endpoint: mean survival time, dose: 200.0 mg/kg/injection, schedule: Q01DX Z (oral), vehicle: saline) was 6 of 6 and the T/C (T/C endpoint: mean survival time, dose: 200.0 mg/kg/injection, schedule: Q04DX003 (ip), vehicle: saline) was 134 % of control. The T/C (T/C endpoint: mean survival time, dose: 200.0 mg/kg/injection, schedule: Q04DX005 (ip), vehicle: saline) was 127 % of control, the T/C (T/C endpoint: mean survival time, dose: 200.0 mg/kg/injection, schedule: Q## X004 (ip), vehicle: saline) was 148 % of control and the T/C (T/C endpoint: mean survival time, dose: 270.0 mg/kg/injection, schedule: Q## X032 (ip), vehicle: water) was 132 [9 of 10 alive] and 138 % of control. For the same compound, the T/C (T/C endpoint: mean survival time, dose: 284.0 mg/kg/injection, schedule: Q04DX002 (ip), vehicle: saline) was 115, 135, 142, 151 % of control, the T/C (T/C endpoint: mean survival time, dose: 300.0 mg/kg/injection, schedule: Q02DX010 (ip), vehicle: carboxymethylcellulose (CMC)) was 145 % of control and the T/C (T/C endpoint: mean survival time, dose: 317.0 mg/kg/injection, schedule: Q02DX008 (ip), vehicle: saline) was 140 % of control. The T/C (T/C endpoint: mean survival time, dose: 335.0 mg/kg/injection, schedule: Q01DX001 (ip), vehicle: saline) was 135 % of control, the T/C (T/C endpoint: mean survival time, dose: 335.0 mg/kg/injection, schedule: Q01DX001 (ip), vehicle: water) was 126 % of control and the T/C (T/C endpoint: mean survival time, dose: 350.0 mg/kg/injection, schedule: Q07DX003 (ip), vehicle: saline) was 133 and 143 % of control. For the same compound, the T/C (T/C endpoint: mean survival time, dose: 400.0 mg/kg/injection, schedule: Q01DX001 (ip), vehicle: saline) was 130 % of control, the T/C (T/C endpoint: mean survival time, dose: 400.0 mg/kg/injection, schedule: Q01DX001 (ip), vehicle: water) was 126 % of control and the T/C (T/C endpoint: mean survival time, dose: 500.0 mg/kg/injection, schedule: Q01DX001 (ip), vehicle: saline, evaluated on day 30) was 122 and 136 % of control. For the same compound, the T/C (T/C endpoint: mean survival time, dose: 500.0 mg/kg/injection, schedule: Q01DX001 (ip), vehicle: saline, evaluated on day 46) was 156 % of control, the T/C (T/C endpoint: mean survival time, dose: 500.0 mg/kg/injection, schedule: Q01DX001 (ip), vehicle: saline, run until all animals had died) was 135 and 151 % of control and the T/C (T/C endpoint: mean survival time, dose: 500.0 mg/kg/injection, schedule: Q01DX001 (ip), vehicle: water) was 138 % of control. For the same compound, the T/C (T/C endpoint: mean survival time, dose: 543.0 mg/kg/injection, schedule: Q01DX001 (ip), vehicle: saline) was 131 % of control, the T/C (T/C endpoint: mean survival time, dose: 568.0 mg/kg/injection, schedule: Q04DX002 (ip), vehicle: saline) was 119, 125, 137, 147 % of control and the survivor count (T/C endpoint: mean survival time, dose: 600.0 mg/kg/injection, schedule: Q03DX006 (ip), vehicle: saline) was 6 of 6. The T/C (T/C endpoint: mean survival time, dose: 625.0 mg/kg/injection, schedule: Q01DX001 (ip), vehicle: saline) was 138 % of control (2×), the T/C (T/C endpoint: mean survival time, dose: 675.0 mg/kg/injection, schedule: Q## X004 (ip), vehicle: saline) was 126 % of control and the T/C (T/C endpoint: mean survival time, dose: 750.0 mg/kg/injection, schedule: Q01DX001 (ip), vehicle: saline) was 135 % of control. For the same compound, the T/C (T/C endpoint: mean survival time, dose: 800.0 mg/kg/injection, schedule: Q01DX001 (ip), vehicle: saline) was 142 % of control, the survivor count (T/C endpoint: mean survival time, dose: 800.0 mg/kg/injection, schedule: Q01DX005 (ip), vehicle: saline) was 10 of 10 and the T/C (T/C endpoint: mean survival time, dose: 896.0 mg/kg/injection, schedule: Q## X032 (ip), vehicle: saline) was 126 % of control. The T/C (T/C endpoint: mean survival time, dose: 1000.0 mg/kg/injection, schedule: Q01DX001 (ip), vehicle: saline, evaluated on day 30) was 117 and 152 % of control, the T/C (T/C endpoint: mean survival time, dose: 1000.0 mg/kg/injection, schedule: Q01DX001 (ip), vehicle: saline, evaluated on day 46) was 170 % of control and the T/C (T/C endpoint: mean survival time, dose: 1000.0 mg/kg/injection, schedule: Q01DX001 (ip), vehicle: saline, run until all animals had died) was 88 and 151 % of control. The survivor count (T/C endpoint: mean survival time, dose: 1280.0 mg/kg/injection, schedule: Q01DX009 (oral), vehicle: saline) was 6 of 6, the T/C (T/C endpoint: median survival time, dose: 40.0 mg/kg/injection, schedule: Q01DX009 (ip), vehicle: saline) was 130 and 146 % of control and the T/C (T/C endpoint: median survival time, dose: 80.0 mg/kg/injection, schedule: Q01DX009 (ip), vehicle: saline) was 145 % of control. The T/C (T/C endpoint: median survival time, dose: 160.0 mg/kg/injection, schedule: Q01DX009 (ip), vehicle: saline) was 133 % of control and the survivor count (T/C endpoint: median survival time, dose: 320.0 mg/kg/injection, schedule: Q01DX009 (ip), vehicle: saline) was 6 of 6.
